Data reported in article doi:10.1101/2021.04.07.438830 (bioRxiv, 2021).
These are yes or no findings as the source states them, for the method shown. In cells and extracts the contact can be indirect. Some binding calls cover weakened binding; strength is not graded here. For part of these data: Tags and fused reporters may be left off the sequences shown. Blank lines part the entries; values can stand above or below the molecule they belong to.

Amino acid sequences for entries named in this document (tags omitted). Residues count along the entry.
UniProt P19838, residues 1-433: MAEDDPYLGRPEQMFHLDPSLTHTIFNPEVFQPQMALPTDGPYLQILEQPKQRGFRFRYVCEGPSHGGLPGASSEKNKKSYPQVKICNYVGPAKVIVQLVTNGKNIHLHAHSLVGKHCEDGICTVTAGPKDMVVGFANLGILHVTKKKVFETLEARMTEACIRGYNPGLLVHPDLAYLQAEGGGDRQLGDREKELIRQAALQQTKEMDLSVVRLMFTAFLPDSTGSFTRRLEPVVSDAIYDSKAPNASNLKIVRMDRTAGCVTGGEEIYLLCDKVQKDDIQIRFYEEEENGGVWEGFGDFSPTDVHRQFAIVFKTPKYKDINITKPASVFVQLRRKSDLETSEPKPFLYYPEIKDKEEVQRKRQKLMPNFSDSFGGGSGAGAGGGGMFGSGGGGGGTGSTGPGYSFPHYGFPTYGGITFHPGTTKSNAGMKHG
UniProt Q9Y572: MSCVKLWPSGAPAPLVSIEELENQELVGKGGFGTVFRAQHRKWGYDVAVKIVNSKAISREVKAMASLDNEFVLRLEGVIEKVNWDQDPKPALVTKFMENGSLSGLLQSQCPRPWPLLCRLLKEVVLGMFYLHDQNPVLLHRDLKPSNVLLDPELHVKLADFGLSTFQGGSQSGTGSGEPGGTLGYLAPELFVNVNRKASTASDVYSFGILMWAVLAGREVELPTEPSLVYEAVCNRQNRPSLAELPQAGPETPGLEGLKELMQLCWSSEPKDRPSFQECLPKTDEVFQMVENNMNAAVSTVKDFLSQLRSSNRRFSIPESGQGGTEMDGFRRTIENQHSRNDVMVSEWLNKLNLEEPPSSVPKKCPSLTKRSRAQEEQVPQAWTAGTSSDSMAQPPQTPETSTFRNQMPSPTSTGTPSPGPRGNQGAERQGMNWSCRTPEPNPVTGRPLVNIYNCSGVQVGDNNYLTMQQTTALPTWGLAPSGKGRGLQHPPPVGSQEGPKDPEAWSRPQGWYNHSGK
UniProt Q04206: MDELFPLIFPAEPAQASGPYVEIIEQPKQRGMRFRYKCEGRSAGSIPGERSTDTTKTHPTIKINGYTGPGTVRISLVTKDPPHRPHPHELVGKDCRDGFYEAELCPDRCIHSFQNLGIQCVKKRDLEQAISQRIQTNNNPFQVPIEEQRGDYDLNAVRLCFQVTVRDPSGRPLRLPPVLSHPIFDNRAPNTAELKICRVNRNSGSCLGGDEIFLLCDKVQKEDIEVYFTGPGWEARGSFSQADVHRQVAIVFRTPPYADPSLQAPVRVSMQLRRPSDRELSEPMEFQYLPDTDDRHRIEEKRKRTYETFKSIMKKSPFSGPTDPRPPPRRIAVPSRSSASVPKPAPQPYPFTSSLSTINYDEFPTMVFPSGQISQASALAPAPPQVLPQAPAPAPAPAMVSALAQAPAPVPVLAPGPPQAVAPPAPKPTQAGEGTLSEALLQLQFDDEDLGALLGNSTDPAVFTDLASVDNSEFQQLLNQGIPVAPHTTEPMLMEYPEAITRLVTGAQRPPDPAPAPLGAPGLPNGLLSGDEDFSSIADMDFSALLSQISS
UniProt P25445, residues 26-335: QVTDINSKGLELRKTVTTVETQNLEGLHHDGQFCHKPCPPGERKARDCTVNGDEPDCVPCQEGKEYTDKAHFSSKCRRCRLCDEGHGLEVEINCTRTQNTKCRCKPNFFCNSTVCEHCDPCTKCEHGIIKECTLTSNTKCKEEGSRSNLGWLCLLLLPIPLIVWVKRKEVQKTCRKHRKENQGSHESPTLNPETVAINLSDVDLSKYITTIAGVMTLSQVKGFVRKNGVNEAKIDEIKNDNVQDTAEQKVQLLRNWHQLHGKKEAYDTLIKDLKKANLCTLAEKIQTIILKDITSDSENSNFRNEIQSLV
UniProt Q13546: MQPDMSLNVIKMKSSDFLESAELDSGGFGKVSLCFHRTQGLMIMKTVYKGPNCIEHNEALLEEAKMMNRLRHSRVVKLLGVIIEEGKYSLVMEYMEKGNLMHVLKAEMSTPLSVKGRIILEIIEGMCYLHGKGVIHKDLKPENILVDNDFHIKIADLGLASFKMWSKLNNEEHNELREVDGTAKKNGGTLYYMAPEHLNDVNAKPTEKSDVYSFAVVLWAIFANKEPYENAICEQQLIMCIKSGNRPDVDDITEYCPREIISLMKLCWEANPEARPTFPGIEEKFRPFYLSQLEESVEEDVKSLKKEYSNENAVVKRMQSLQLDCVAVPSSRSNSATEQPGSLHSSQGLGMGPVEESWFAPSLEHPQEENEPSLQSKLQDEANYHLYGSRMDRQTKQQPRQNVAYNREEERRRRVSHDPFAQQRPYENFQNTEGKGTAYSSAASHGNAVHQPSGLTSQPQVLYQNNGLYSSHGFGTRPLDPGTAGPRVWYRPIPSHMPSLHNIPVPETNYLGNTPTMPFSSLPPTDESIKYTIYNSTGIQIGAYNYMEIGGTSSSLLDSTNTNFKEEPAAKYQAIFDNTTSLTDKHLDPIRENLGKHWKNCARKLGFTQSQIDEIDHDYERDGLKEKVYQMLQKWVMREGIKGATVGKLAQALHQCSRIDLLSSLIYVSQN

Columns and labels:
Flag-KPC2 = biological target: T1, Flag-KPC2 (UniProt Q9BSL1); test: co-IP
T1 sequence: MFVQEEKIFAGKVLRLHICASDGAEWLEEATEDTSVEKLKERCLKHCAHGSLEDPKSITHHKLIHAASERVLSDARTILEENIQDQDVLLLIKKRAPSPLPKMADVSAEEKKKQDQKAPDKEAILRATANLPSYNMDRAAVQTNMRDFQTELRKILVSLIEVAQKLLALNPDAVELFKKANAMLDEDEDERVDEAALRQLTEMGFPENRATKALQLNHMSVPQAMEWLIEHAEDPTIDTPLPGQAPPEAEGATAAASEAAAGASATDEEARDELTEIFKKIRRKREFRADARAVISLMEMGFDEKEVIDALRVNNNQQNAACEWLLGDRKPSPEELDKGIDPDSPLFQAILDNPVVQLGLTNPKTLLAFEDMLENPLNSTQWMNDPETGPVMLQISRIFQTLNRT

[1] = biological target: p50 (NFκB1), endogenous (human (endogenous in MDA-MB-231 or HEK293T)) (UniProt P19838); test: co-IP
RIP3-F2 = RIP3-F2 (UniProt Q9Y572); test: split reporter
Flag-p65 = Flag-p65 (UniProt Q04206); test: co-IP
Flag-KPC1 = biological target: T2, Flag-KPC1 (UniProt Q5XPI4); test: co-IP
T2 sequence: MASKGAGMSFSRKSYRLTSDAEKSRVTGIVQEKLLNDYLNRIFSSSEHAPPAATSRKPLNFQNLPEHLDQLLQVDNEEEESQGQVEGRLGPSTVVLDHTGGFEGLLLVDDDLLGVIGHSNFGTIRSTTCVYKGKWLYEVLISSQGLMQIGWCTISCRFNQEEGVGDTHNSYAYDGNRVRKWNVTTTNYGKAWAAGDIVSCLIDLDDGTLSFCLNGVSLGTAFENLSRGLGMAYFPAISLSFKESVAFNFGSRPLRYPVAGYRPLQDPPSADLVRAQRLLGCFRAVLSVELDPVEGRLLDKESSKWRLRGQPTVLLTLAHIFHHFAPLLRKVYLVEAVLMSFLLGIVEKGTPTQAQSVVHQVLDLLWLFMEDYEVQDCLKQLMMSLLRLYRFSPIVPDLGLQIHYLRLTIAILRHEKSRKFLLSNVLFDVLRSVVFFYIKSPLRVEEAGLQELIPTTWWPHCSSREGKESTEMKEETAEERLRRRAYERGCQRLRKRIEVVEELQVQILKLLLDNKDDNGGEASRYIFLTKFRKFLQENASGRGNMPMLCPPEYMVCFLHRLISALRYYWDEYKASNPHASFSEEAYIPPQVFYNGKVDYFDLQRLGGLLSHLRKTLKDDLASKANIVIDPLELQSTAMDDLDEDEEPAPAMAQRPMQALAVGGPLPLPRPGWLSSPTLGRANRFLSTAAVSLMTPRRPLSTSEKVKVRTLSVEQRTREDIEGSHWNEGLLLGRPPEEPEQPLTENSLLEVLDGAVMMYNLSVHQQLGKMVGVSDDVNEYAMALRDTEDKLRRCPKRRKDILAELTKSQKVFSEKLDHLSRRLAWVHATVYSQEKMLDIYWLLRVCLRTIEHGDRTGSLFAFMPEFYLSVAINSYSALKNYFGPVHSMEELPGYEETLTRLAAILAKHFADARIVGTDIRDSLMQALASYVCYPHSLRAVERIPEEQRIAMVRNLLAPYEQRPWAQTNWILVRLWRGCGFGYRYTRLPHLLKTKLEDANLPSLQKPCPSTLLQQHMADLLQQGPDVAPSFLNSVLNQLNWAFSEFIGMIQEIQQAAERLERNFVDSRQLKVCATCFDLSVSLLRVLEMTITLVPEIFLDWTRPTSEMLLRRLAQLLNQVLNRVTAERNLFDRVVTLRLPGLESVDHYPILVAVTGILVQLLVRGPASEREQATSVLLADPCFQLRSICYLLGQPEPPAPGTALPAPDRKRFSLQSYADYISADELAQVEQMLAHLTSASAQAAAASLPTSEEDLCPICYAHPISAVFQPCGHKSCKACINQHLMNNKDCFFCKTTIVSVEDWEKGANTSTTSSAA

[2] = biological target: CD95 fused to the C-term region of Renilla luciferase (F2) (human) (UniProt P25445); test: split reporter

binding (Flag-KPC2): binds
Molecule: p65-Renilla luciferase (domain F1) (from UniProt Q04206 1-551)

binding (Flag-p65): binds
binding (Flag-KPC1): binds
B1: V5-KPC2 (protein, UniProt Q9BSL1 1-405)
chain: T1 sequence

Further lines, the molecule ahead of its results:

Molecule: p65 (RelA), endogenous (from UniProt Q04206 1-551)
binding [1]: binds

Molecule: RIP1-F1 (from UniProt Q13546 1-671)
binding (RIP3-F2): binds

B2: KPC2 fused to the N-term part of Renilla luciferase (F1) (protein, UniProt Q9BSL1 1-405)
chain: T1 sequence
binding [2]: binds
